Assay results published in article PMC6154613, “Investigation of the Anti-Leishmania (Leishmania) infantum Activity of Some Natural Sesquiterpene Lactones” (Molecules : A Journal of Synthetic Chemistry and Natural …, 2017).

Test system: L. (L.) infantum intracellular amastigotes
Test: Activity against intracellular amastigotes in peritoneal macrophages, Giemsa staining and light microscopy
Assay type: cell-based, Leishmania (Leishmania) infantum
Settings: selectivity index = CC50 in NCTC cells / IC50 in amastigotes
Description: L. (L.) infantum (MHOM/BR/1972/LD) promastigotes were maintained in M-199 medium supplemented with 10% heat-inactivated fetal bovine serum (FBS) (Gibco, Thermo Fisher Scientific, São Paulo, Brazil), 0.25% hemin (Sigma-Aldrich), and 5% human urine at 24 °C. Amastigotes were obtained from the spleen of previously infected hamsters by differential centrifugation. Macrophages were collected from the peritoneal cavity of BALB/c mice by washing with RPMI-1640 medium supplemented with 10% FBS, and were maintained at 37 °C in a 5% CO2-humidified incubator. Murine fibroblasts NCTC (clone L929 ATCC) were used to evaluate the cytotoxicity of the tested compounds. NCTC cells were maintained in M-199 medium supplemented with 10% FBS and 20 μg/mL gentamicin at 37 °C in a 5% CO2-humidified incubator.
Murine peritoneal macrophages were collected from the peritoneal cavity of BALB/c mice, and the macrophages were seeded at 1 × 10^5/well for 24 h in a 16-well slide. Amastigotes were prepared (as described previously), seeded at a ratio 1:10 (macrophages:amastigotes) and kept at 37 °C in a 5% CO2-humidified incubator for 24 h. Test compounds were incubated to the highest concentration of 100 μM with infected macrophages for 120 h. Miltefosine was used as a standard drug. Subsequently, the cells were fixed with methanol, stained with Giemsa (Merck KGaA, Darmstadt, Germany), and observed using a light microscope. The parasite burden was determined by the number of infected macrophages out of 400 cells.
Data processing and statistical analyses was done with GraphPad Prism® 5.0 (GraphPad Software, Inc. La Jolla, CA, USA). For determination of antileishmanial activity and NCTC cytotoxicity, the IC50 and CC50 values were calculated after normalization using sigmoidal dose-response curves. The evaluation of statistical significance of multiple pairs was done with a Tukey's range test, which corrects for the increased probability of a type I error during multiple comparison.

Row | SMILES | SI (NCTC/Amastigote) | SI (NCTC/Amastigote) (listed as helenalin acetate (1))
1 | C=C(CO)C(=O)O[C@H]1CC(=C)[C@@H]2C[C@H](O)C(=C)[C@@H]2[C@H]2OC(=O)C(=C)[C@@H]21 [Cynaropicrin (4), Cynaropicrin] | 4.8 | –
2 | C=C1C(=O)O[C@H]2C[C@@H](C)[C@@H]3C=CC(=O)[C@@]3(C)[C@H](O)[C@H]12 [Mexicanin I (2), Mexicanin I] | 5.3 | –
3 | C=C1C(=O)OC2CC(C)C3C=CC(=O)C3(C)C(OC(C)=O)C12 (centres unmarked) [Helenalin acetate (1), Helenalin acetate] | 7.0 | 7
4 | C=C1C(=O)O[C@@H]2[C@H]3C(C)=CC[C@@]34O[C@@]4(C)CC[C@@H]12 [Arglabin (3), Arglabin] | 5.3 | –
